{"source": "PubChem BioAssay AID540276", "about": "(National Center for Advancing Translational Sciences (NCATS), 2011)", "note": "Where “and” joins values, the source holds several entries; their conditions need not be identical. Equal entries are not always repeated. The campaign covered roughly 300,000 compounds. About 5,400 (1.8%) were called active. The inconclusive results got no clear call from the source; some entries with a clear call stand among them for comparison. Calls come from the whole dose curve; tested in HEK293 cells. Potencies of inconclusive entries are doubtful fits and often do not repeat. Potency is the fitted concentration of half-maximal effect.", "data": [{"test": "qHTS for inhibitors of binding or entry into cells for Marburg Virus", "conditions": "Marburg virus pseudotyped entry inhibition, cell reporter; series mostly up to 37.8 µM", "values": [{"smiles": "O=C(Oc1ccc(-c2nnco2)cc1)c1ccc(F)c(S(=O)(=O)N2CCOCC2)c1", "Potency": "inconclusive: 1.41 µM [activator, partial curve, poor fit]"}, {"smiles": "COc1ccc(/C=N/NC(=O)c2ccc(Br)cc2)cc1Cn1cc(Cl)cn1", "Potency": "inconclusive: 6.31 µM [inhibitor, full curve, poor fit]"}, {"smiles": "CCc1ccc(C(=O)OCC(=O)NCCNC(=O)COC(=O)c2ccc(CC)cc2)cc1", "Potency": "inactive"}, {"smiles": "O=C(NC1CCCc2ccccc21)C1CCN(S(=O)(=O)c2ccccc2F)CC1", "note": "(configuration not stated)", "Potency": "inconclusive: 0.631 µM [activator, partial curve, poor fit]"}, {"smiles": "COc1ccc(C(=O)c2cn(Cc3ccc(C)cc3)c3cc4c(cc3c2=O)OCO4)cc1", "Potency": "inconclusive: 5.62 µM [inhibitor, single point]"}, {"smiles": "O=C(CSc1nnc(COc2ccc(Cl)cc2)o1)NC1CC2CCC1C2", "note": "(configuration not stated)", "Potency": "inconclusive: 0.562 µM [inhibitor, full curve, poor fit]"}, {"smiles": "Cc1ccc2nc(-c3cccnc3)cc(C(=O)Nc3ccc(F)cc3C)c2c1", "Potency": "inconclusive: 7.94 µM [inhibitor, partial curve]"}, {"smiles": "COc1ccc(N2CCCC2)c(NC(=O)COc2ccccc2Cl)c1", "Potency": "inconclusive: 6.31 µM [inhibitor, single point]"}, {"smiles": "CCCCSCCCNC(=S)Nc1ccccc1C", "Potency": "inconclusive: 22.4 µM [inhibitor, single point]"}, {"smiles": "COc1ccc(NC(=O)c2nnn(CC(=O)Nc3ccc4c(c3)OCO4)c2N)c(OC)c1", "Potency": "inactive"}, {"smiles": "COc1cc(NC(=O)c2cccs2)ccc1NC(=O)Cc1ccccc1", "Potency": "inactive"}, {"smiles": "CC(C)OP(=O)(OC(C)C)C(NC(=O)c1ccc(Br)cc1)c1ccccc1", "note": "(configuration not stated)", "Potency": "inconclusive: 13 µM [inhibitor, single point]"}, {"smiles": "Cc1ccc(Nc2nc(NCC3CCCO3)nc(N)c2[N+](=O)[O-])cc1C", "note": "(configuration not stated)", "Potency": "inconclusive: 1.58 µM [inhibitor, partial curve, poor fit]"}, {"smiles": "CCS(=O)(=O)N1CCCC(c2nc(-c3cccc(OC)c3)no2)C1", "note": "(configuration not stated)", "Potency": "inactive"}, {"smiles": "COc1ccccc1C(=O)Oc1ccc2c(c1)O/C(=C\\c1ccncc1)C2=O", "Potency": "inconclusive: 3.98 µM [inhibitor, full curve, poor fit]"}, {"smiles": "COc1ccc2cc(-c3cc(C(=O)OCC(=O)Nc4c(C)n(C)n(-c5ccccc5)c4=O)c4ccccc4n3)ccc2c1", "Potency": "inconclusive: 32.6 µM [inhibitor, single point] and inconclusive: 1.78 µM [inhibitor, full curve, poor fit]"}, {"smiles": "O=c1[nH]cnc2sc3c(c12)CN(Cc1ccccc1)CC3", "Potency": "inactive"}]}]}
